In the odorant receptor screen of Mainland et al. (2015):
Values joined by “and” are separate entries in the source; they are usually repeats but may differ in a detail not shown here. Equal entries are not always repeated. This is one part of the list. Single wells; the ratio to wells without odorant was worked out here, and repeats agree poorly.

Columns and labels:
Assay in all cases: odorant receptor activation (CRE luciferase / Renilla) (fold of no-odor wells); higher = more activation
Settings in all cases: 100 µM
OR2T10 clone 1047 = tested on: OR2T10 clone 1047
[1] = tested on: OR2T11 C119R/Q309R clone 1050
[2] = tested on: OR2T11 C119R/Q309R clone 1051
OR2T2 clone 1561 = tested on: OR2T2 clone 1561
OR2T29 clone 1545 = tested on: OR2T29 clone 1545
OR2T3 clone 1397 = tested on: OR2T3 clone 1397
OR2T34 clone 1049 = tested on: OR2T34 clone 1049
OR2T35 V31I clone 1562 = tested on: OR2T35 V31I clone 1562
OR2T4 clone 1347 = tested on: OR2T4 clone 1347
OR2T5 clone 1033 = tested on: OR2T5 clone 1033
OR2T5 clone 1495 = tested on: OR2T5 clone 1495
OR2T5 clone 1496 = tested on: OR2T5 clone 1496
[3] = tested on: OR2T6 N21D/C23G/S243A clone 1432
OR2T8 clone 1576 = tested on: OR2T8 clone 1576
OR2V1 clone 1718 = tested on: OR2V1 clone 1718
OR2W1 D296N clone 1536 = tested on: OR2W1 D296N clone 1536
OR2W1 clone 1067 = tested on: OR2W1 clone 1067
OR2W3 Indel clone 1491 = tested on: OR2W3 Indel clone 1491
OR2W5 clone 1506 = tested on: OR2W5 clone 1506
OR2Y1 V200L clone 1069 = tested on: OR2Y1 V200L clone 1069

SMILES | odorant receptor activation (OR2T10 clone 1047) | odorant receptor activation [1] | odorant receptor activation [2] | odorant receptor activation (OR2T2 clone 1561) | odorant receptor activation (OR2T29 clone 1545) | odorant receptor activation (OR2T3 clone 1397) | odorant receptor activation (OR2T34 clone 1049) | odorant receptor activation (OR2T35 V31I clone 1562) | odorant receptor activation (OR2T4 clone 1347) | odorant receptor activation (OR2T5 clone 1033) | odorant receptor activation (OR2T5 clone 1495) | odorant receptor activation (OR2T5 clone 1496) | odorant receptor activation [3] | odorant receptor activation (OR2T8 clone 1576) | odorant receptor activation (OR2V1 clone 1718) | odorant receptor activation (OR2W1 D296N clone 1536) | odorant receptor activation (OR2W1 clone 1067) | odorant receptor activation (OR2W3 Indel clone 1491) | odorant receptor activation (OR2W5 clone 1506) | odorant receptor activation (OR2Y1 V200L clone 1069)
CC(=O)C(C)=O [diacetyl] | 1.19 | 1.08 | 0.89 | 0.935 | 1.85 | 1.15 | 1.01 | 0.85 | 1.36 | 0.822 | 1.09 | 1.16 | 1.22 | 0.779 | 0.765 | 1.27 | 1.41 and 1.06 | 1.1 | 1.15 | 1.06
C=CCc1ccc(OC)c(OC)c1 [eugenol methyl ether] | 1.91 | 1.48 | 1.29 | 0.764 | 1.57 | 1.29 | 1.56 | 0.662 | 1.48 | 1.5 | 1.15 | 1.26 | 1.46 | 0.646 | 0.894 | 1.43 | 1.05 and 1.58 | 1.35 | 0.99 | 1.48
CC=Cc1ccc(O)c(OC)c1 [isoeugenol] | 1 | 1.84 | 1.73 | 5.59 | 1.05 and 2.88 | 1.36 | 3.07 | 0.229 | 1.17 and 1.67 | 6.52 | 0.97 and 1.67 | 2.08 and 1.83 | 1.49 | 5.06 | 4.44 | 1.25 and 1.72 | 2.61 and 0.898 | 1.38 and 2.53 | 1.01 and 1.57 | 1.43
CC(=O)OC(C)(C)C1CC=C(C)CC1 (stereo not given) [terpinyl acetate] | 1.42 | 1.48 | 0.959 | 0.728 | 1.45 | 0.924 | 1.59 | 0.955 | 0.801 | 1.57 | 1.04 | 1.25 | 0.832 | 0.961 | 1.11 | 1.17 | 1.63 and 2.57 | 0.78 | 0.896 | 1.18
CC(=O)OCC=C(C)CCC=C(C)C [geranyl acetate] | 1.38 | 1.07 | 1.22 | 0.825 | 1.14 and 2.46 | 1.11 | 2.63 | 1.72 | 0.851 and 1.04 | 1.13 | 0.995 and 1.2 | 1.5 and 1.06 | 1.15 | 1.28 | 1.17 | 3.15 and 3.02 | 1.09 and 1.19 | 0.718 and 1.83 | 0.922 and 1.18 | 1.96
COC(=O)c1ccccc1O [methyl salicylate] | 1.1 | 1.05 | 1.11 | 0.86 | 0.911 | 1.14 | 0.848 | 0.756 | 0.785 | 1.12 | 1.09 | 1.19 | 1.12 | 0.834 | 0.903 | 1.29 | 1.1 and 1.55 | 0.778 | 0.996 | 1.23
COc1ccccc1O [guaiacol] | 1.22 | 5.8 | 2.06 | 0.683 | 1.13 and 1.7 | 0.783 | 2.06 | 0.88 | 0.908 and 0.972 | 1.74 | 0.725 and 1.29 | 1.3 and 0.938 | 0.758 | 0.923 | 0.839 | 1.22 and 1.26 | 1.4 and 0.899 | 0.706 and 1.66 | 1.02 and 1.26 | 2.62
CCCCCC(=O)O [caproic acid] | 0.855 | 0.953 | 1.15 | 0.55 | 0.803 | 0.264 | 0.859 | 0.878 | 0.778 | 0.86 | 0.914 | 0.975 | 0.151 | 0.752 | 0.766 | 1.1 | 1.23 and 0.863 | 1.09 | 1.24 | 1.35
CC1CCC(C(C)C)C(O)C1 (single isomer, unassigned; (-)) [(-)-menthol] | 2.9 | 2.04 | 2.8 | 0.805 | 2.64 | 0.903 | 4.27 | 1.35 | 0.92 | 2.65 | 2.35 | 2.75 | 1.17 | 0.643 | 0.931 | 1.28 | 3.26 and 2.31 | 2.5 | 1.31 | 2.92
O=C1CCCCCCCCCCCCCCO1 [pentadecalactone] | 0.812 | 0.863 | 0.467 | 0.897 | 1.07 | 1.03 | 0.85 | 0.775 | 0.806 | 1.06 | 0.733 | 1.38 | 1.01 | 0.81 | 0.646 | 0.663 | 0.676 | 0.841 | 1.08 | 0.943
CCCCCCCCCCC=O [undecanal] | 1.21 | 0.971 | 0.874 | 0.781 | 0.797 | 1.22 | 1.13 | 1.1 | 1.03 | 1.12 | 1.06 | 1.27 | 0.94 | 0.94 | 1.19 | 1.19 | 1.19 and 1.11 | 0.968 | 0.857 | 0.861
CCC1(O)C2(C)CCC(C2)C1(C)C (stereo not given) [2-ethylfenchol] | 4 | 2.71 | 3.03 | 0.675 | 1.18 | 2.85 | 2.56 | 0.142 | 0.937 | 2.65 | 1.03 | 0.961 | 1.23 | 0.632 | 0.97 | 0.925 | 1.78 and 1.59 | 1.08 | 1.13 | 2.2
CCCCO [1-butanol] | 2.59 | 3.65 | 3.16 | 0.902 | 1.17 | 1.13 | 2.87 | 1.02 | 1.23 | 1.87 | 1.19 | 1.15 | 1.11 | 0.672 | 1.08 | 1.26 | 1.61 and 1.96 | 1.09 | 1.3 | 2.7
C=C(C)C1CC=C(C)C(=O)C1 (stereo not given) [r-carvone] | 1.29 | 1.04 | 0.599 | 0.899 | 0.993 | 1.17 | 0.933 | 0.884 | 0.875 | 0.923 | 0.955 | 1.04 | 0.992 | 0.72 | 0.665 | 2.54 | 1.13 and 2.28 | 0.793 | 1.02 | 0.794
CCCC(=O)O [butyric acid] | 1.11 | 1.19 | 1.17 | 0.708 | 0.915 | 0.274 | 1.03 | 1.18 | 0.823 | 0.951 | 0.83 | 0.923 | 0.177 | 1.13 | 0.854 | 0.872 | 0.699 and 1.07 | 0.817 | 0.946 | 1.55
CC12CCC(C1)C(C)(C)C2=O (stereo not given) [fenchone] | 0.975 | 1.31 | 1.11 | 0.845 | 1.32 | 0.89 | 1.01 | 0.885 | 1.14 | 0.907 | 1.15 | 1.02 | 0.969 | 0.929 | 0.882 | 1.04 | 0.835 and 0.953 | 0.925 | 1.01 | 1.11
CC(C)=CCCC(C)=CC=O [citral] | 1.09 | 1.26 | 1.44 | 1.07 | 0.857 | 0.349 | 0.939 | 1.05 | 0.991 | 0.952 | 1.16 | 0.968 | 0.212 | 1.08 | 1.2 | 2.08 | 1.99 and 2.72 | 1.09 | 0.943 | 1.18
COc1cc(C=O)ccc1O [vanillin] | 1.18 | 0.962 | 0.805 | 0.717 | 1.09 | 0.949 | 0.822 | 1.24 | 1.2 | 1.11 | 0.847 | 1.45 | 0.849 | 0.67 | 0.795 | 1.11 | 1.91 and 1.01 | 0.995 | 0.839 | 0.756
O=C1CCCCCCCCCCCC(=O)OCCO1 [ethylene brassylate] | 2.31 | 1.52 | 1.35 | 1.19 | 1.68 | 1.44 | 1.5 | 1.16 | 1.71 | 1.53 | 1.47 | 1.27 | 1.85 | 1.02 | 1.35 | 0.649 | 0.408 and 0.772 | 1.08 | 1.13 | 1.33
CCCCCCCCC=O [nonyl aldehyde] | 0.972 | 0.814 | 1.13 | 0.672 | 1.31 | 0.81 | 0.919 | 1.09 | 0.9 | 1.02 | 1.5 | 1.43 | 1.14 | 0.62 | 0.675 | 1.95 | 1.3 and 2.01 | 1 | 1.04 | 1.22
CC(C)CCC(=O)O [4-methylvaleric acid] | 1.46 | 1.86 | 1.87 | 0.851 | 0.989 | 0.819 | 1.72 | 0.159 | 1.03 | 1.16 | 1.05 | 0.966 | 1.29 | 0.573 | 0.921 | 1.01 | 1.35 and 1.15 | 1 | 1.14 | 1.45
CCCCCCCC=CC=O [2-decenal] | 5.26 | 6.28 | 6.84 | 0.852 | 1.03 | 0.95 | 6.48 | 0.73 | 1.45 | 12.7 | 1.23 | 1.25 | 1.01 | 0.851 | 1.12 | 1.3 | 1.4 | 1.63 | 1.56 | 4.15
c1cnccn1 [pyrazine] | 1.17 | 1.16 | 0.676 | 0.861 | 0.895 | 1.21 | 0.941 | 0.812 | 0.848 | 1.2 | 0.737 | 1.19 | 1.07 | 0.951 | 0.661 | 0.966 | 1.17 and 0.949 | 0.635 | 0.768 | 0.846
CC/C=C\CCO [cis-3-hexen-1-ol] | 0.999 | 1.15 | 1.08 | 0.847 | 0.935 | 0.281 | 0.771 | 1.07 | 1.15 | 0.775 | 0.959 | 1.04 | 0.173 | 1.11 | 1.16 | 1.49 | 1.16 and 1.57 | 0.865 | 1.07 | 1.25
CCCCCCCCCC=O [decyl aldehyde] | 1.31 | 1.16 | 1.18 | 1.08 | 1.6 | 1.22 | 1.18 | 0.943 | 1.64 | 1.08 | 1.1 | 1.04 | 1.44 | 0.904 | 0.847 | 1.29 | 1.73 and 1.39 | 1.12 | 1.16 | 1.12
CCCCCCCC=O [octyl aldehyde] | 1.07 | 0.959 | 1.24 | 0.689 | 1.04 | 0.852 | 0.864 | 0.999 | 0.782 | 1.06 | 0.887 | 1.29 | 0.736 | 0.771 | 0.681 | 1.56 | 1.2 and 2 | 0.788 | 0.72 | 1.22

An excerpt from above, showing only odorant receptor activation (OR2W1 clone 1067):
SMILES	odorant receptor activation (OR2W1 clone 1067)
O=C1CCCCCCCCCCCC(=O)OCCO1 [ethylene brassylate]	0.408 and 0.772
CCCCCCCCC=O [nonyl aldehyde]	1.3 and 2.01
